{
  "source": "patent US20090012150A1",
  "about": "“Stablized Pharmaceutical Composition Comprising an Amorphous Active Substance” (priority 2002, published 2009)",
  "settings": "6 days at 80° C.; hemi calcium salt",
  "method": "Nitrogen of 99% purity (vol/vol) purity was used as an inert gas. The samples were stored at 80° C. for 6 days, and then the assay of impurities was determined by High Performance Liquid Chromatography.\nThe oxygen content in the vials was determined by gas chromatography with a mass spectrometric detector (GC/MS).\nThe degradation products were determined by […] Agilent Technologies (Waldbronn, Germany) model HP 1100. Chromatograms were recorded by a UV detector at 250 nm. The column Chromolit Performance RP-18e 100×4.6 mm (Merck, Darmstadt, Germany) and the gradient of mobile phase A: 20 mM ammonium acetate pH 4.0, 5% (v/v) tetrahydrofuran and 25% (v/v) acetonitrile and the gradient of mobile phase B: 20 mM ammonium acetate pH 4.0, 5% (v/v) tetrahydrofuran and 70 (v/v) acetonitrile were used. The composition of the mobile phase was changed so that initially and to minute 2 there was 25% of mobile phase B (75% of mobile phase A), from minute 2 to minute 4.7 the composition of the mobile phase changed linearly to 100% mobile phase B and it remained such to the end of the analysis at minute 5.5. Flow rate of the mobile phase was 7 ml/min. […] The samples of atorvastatin calcium were dissolved in the solvent 200 mM Tris p H 7, 40% (v/v) acetonitrile of the concentration 0.5 mg/ml.",
  "data": [
    {"smiles": "CC(C)c1c(C(=O)Nc2ccccc2)c(-c2ccccc2)c(-c2ccc(F)cc2)n1CC[C@@H](O)C[C@@H](O)CC(=O)O.CC(C)c1c(C(=O)Nc2ccccc2)c(-c2ccccc2)c(-c2ccc(F)cc2)n1CC[C@@H](O)C[C@@H](O)CC(=O)O.CC(C)c1c(C(=O)Nc2ccccc2)c(-c2ccccc2)c(-c2ccc(F)cc2)n1CC[C@@H](O)C[C@@H](O)CC(=O)[O-].CC(C)c1c(C(=O)Nc2ccccc2)c(-c2ccccc2)c(-c2ccc(F)cc2)n1CC[C@@H](O)C[C@@H](O)CC(=O)[O-].[Ca+2]", "note": "(relative stereo) [Crystalline atorvastatin calcium, (R—(R*, R*))-2-(4-fluorophenyl)-β,δ-dihydroxy-5-(1-methylethyl)-3-phenyl-4((phenylamino)carbonyl)-1H-pyrrole-1-heptanoic acid hemi calcium salt]", "values": [
      {"measurement": "Effect of storing in an inert atmosphere on stability", "result": "no influence on the stability"}
    ]},
    {"smiles": "CC(C)c1c(C(=O)Nc2ccccc2)c(-c2ccccc2)c(-c2ccc(F)cc2)n1CC[C@@H](O)C[C@@H](O)CC(=O)O.CC(C)c1c(C(=O)Nc2ccccc2)c(-c2ccccc2)c(-c2ccc(F)cc2)n1CC[C@@H](O)C[C@@H](O)CC(=O)O.CC(C)c1c(C(=O)Nc2ccccc2)c(-c2ccccc2)c(-c2ccc(F)cc2)n1CC[C@@H](O)C[C@@H](O)CC(=O)[O-].CC(C)c1c(C(=O)Nc2ccccc2)c(-c2ccccc2)c(-c2ccc(F)cc2)n1CC[C@@H](O)C[C@@H](O)CC(=O)[O-].[Ca+2]", "note": "(relative stereo) [Amorphous atorvastatin calcium, (R—(R*, R*))-2-(4-fluorophenyl)-β,δ-dihydroxy-5-(1-methylethyl)-3-phenyl-4((phenylamino)carbonyl)-1H-pyrrole-1-heptanoic acid hemi calcium salt]", "values": [
      {"measurement": "Effect of storing in an inert atmosphere on stability", "result": "improves the stability"}
    ]}
  ]
}
